Results as given in publication PMC7862700.
The list shows a part of the results, in another mix than the full data. At the low end of the ranking the order means little.

Chains of the proteins cited; added tags and fusions are not shown. Lines headed by an entry give the natural chain unless they say otherwise; changes in a name come on top.
UniProt Q01892: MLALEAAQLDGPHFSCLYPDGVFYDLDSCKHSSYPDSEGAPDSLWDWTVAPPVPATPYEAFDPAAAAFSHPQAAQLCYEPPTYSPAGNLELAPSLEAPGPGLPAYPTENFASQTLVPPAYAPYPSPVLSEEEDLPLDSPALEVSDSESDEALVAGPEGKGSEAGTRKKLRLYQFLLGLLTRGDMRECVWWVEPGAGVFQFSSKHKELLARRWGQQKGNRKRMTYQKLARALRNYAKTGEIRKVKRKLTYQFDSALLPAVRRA
UniProt P41161: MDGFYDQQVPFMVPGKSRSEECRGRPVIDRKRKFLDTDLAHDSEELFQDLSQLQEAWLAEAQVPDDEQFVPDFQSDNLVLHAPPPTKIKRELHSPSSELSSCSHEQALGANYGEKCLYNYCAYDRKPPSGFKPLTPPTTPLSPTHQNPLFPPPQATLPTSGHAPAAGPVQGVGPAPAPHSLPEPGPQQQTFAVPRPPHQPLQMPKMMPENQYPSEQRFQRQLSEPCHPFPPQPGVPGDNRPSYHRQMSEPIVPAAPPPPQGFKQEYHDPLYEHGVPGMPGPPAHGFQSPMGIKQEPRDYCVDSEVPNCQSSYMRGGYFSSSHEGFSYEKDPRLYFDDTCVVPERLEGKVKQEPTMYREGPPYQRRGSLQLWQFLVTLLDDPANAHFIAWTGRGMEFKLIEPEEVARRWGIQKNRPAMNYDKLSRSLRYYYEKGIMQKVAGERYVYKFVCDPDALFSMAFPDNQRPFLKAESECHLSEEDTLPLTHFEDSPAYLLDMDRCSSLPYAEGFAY
UniProt Q99607: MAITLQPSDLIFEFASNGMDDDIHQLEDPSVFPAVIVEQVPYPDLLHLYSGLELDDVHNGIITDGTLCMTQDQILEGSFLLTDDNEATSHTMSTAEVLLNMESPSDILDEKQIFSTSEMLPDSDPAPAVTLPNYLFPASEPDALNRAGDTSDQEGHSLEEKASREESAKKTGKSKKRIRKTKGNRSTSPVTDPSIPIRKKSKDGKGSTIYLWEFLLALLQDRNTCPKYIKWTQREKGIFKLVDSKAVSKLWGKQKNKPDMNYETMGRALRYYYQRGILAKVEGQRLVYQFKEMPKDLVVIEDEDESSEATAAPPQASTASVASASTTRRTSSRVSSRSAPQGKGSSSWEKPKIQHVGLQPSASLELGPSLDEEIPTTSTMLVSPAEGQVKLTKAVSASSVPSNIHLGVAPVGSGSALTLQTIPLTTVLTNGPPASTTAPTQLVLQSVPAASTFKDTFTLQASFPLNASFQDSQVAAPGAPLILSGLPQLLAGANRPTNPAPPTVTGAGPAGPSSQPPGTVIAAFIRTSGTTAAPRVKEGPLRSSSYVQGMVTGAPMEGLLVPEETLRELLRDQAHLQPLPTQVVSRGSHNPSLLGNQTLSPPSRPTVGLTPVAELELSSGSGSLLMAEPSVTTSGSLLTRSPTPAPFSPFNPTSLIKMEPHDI

Assays:
Experiment in all cases: DAPPL (digital affinity profiling via proximity ligation, sequencing)
Conditions in all cases: 10 mM Tris-HCl pH 7.5, 50 mM NaCl, 1 mM DTT, 4% glycerol, room temperature, 30 min; GST-TFs on glutathione beads, 16-mer random dsDNA library, 0.1% …; high values mean tight binding; double strand, one strand shown; scale: fold enrichment (6-mer frequency, TF over GST control)
[1] = target: T1, FLI1 (UniProt Q01543)
T1 sequence: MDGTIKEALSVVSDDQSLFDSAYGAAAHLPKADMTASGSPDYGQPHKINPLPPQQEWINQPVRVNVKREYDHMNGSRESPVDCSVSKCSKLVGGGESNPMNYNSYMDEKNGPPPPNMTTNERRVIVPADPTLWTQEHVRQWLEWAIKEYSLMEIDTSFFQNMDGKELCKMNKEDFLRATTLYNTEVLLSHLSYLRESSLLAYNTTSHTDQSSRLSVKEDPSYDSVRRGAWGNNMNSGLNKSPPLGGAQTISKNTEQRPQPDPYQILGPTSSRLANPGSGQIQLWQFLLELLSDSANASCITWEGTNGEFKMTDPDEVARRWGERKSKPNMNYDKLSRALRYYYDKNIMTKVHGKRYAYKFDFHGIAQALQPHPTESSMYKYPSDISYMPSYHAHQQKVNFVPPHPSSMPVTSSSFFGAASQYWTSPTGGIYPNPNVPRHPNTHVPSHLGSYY

[2] = target: T2, EHF (UniProt Q9NZC4)
T2 sequence: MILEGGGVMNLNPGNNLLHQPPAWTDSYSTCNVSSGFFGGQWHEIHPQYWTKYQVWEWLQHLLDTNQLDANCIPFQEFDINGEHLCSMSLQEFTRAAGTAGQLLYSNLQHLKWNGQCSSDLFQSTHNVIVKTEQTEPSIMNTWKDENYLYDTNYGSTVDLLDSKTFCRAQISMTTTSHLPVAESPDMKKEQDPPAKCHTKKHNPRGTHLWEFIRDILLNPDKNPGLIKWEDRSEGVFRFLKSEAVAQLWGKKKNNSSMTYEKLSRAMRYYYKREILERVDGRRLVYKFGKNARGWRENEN

[3] = target: SPIB (UniProt Q01892)
[4] = target: ETV5 (UniProt P41161)
[5] = target: ELF4 (UniProt Q99607)
[6] = target: T3, ETV2 (UniProt O00321)
T3 sequence: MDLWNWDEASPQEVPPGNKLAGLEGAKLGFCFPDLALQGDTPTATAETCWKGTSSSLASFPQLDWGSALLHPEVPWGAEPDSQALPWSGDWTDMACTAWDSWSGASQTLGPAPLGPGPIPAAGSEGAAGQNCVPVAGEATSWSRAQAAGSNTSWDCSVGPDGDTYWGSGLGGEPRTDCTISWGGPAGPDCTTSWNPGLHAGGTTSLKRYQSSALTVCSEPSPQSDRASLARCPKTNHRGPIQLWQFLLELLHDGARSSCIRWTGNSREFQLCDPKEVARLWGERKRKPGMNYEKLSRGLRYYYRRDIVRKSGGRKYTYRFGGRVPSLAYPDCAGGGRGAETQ

[7] = target: T4, ETV3L (UniProt Q6ZN32)
T4 sequence: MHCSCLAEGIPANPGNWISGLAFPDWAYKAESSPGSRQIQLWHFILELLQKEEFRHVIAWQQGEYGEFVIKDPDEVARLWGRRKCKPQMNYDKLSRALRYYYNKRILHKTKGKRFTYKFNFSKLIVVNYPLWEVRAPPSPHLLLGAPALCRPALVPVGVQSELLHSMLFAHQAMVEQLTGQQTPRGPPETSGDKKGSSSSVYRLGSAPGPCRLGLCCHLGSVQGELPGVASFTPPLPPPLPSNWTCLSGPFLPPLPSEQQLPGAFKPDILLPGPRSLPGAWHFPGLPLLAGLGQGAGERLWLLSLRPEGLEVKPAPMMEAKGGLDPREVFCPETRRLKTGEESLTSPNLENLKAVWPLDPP

Row | Sequence | binding signal [1] | binding signal [2] | binding signal [3] | binding signal [4] | binding signal [5] | binding signal [6] | binding signal [7]
1 | GTTAGG | 0.7 | 0.817 | 0.858 | 0.841 | 0.793 | 0.801 | 0.794
2 | TGAGGG | 0.595 | 0.635 | 0.666 | 0.634 | 0.62 | 0.624 | 0.658
3 | CGCATT | 0.81 | 0.817 | 0.808 | 0.816 | 0.803 | 0.793 | 0.775
4 | GTAGGC | 0.73 | 0.698 | 0.664 | 0.713 | 0.741 | 0.886 | 0.705
5 | ACGTCG | 0.66 | 0.646 | 0.633 | 0.581 | 0.616 | 0.64 | 0.66
6 | GCACCG | 0.686 | 0.777 | 0.678 | 0.781 | 0.706 | 0.715 | 0.793
7 | TGCCAG | 0.678 | 0.666 | 0.691 | 0.722 | 0.683 | 0.704 | 0.57
8 | TCAGAA | 0.921 | 0.925 | 0.886 | 0.881 | 1 | 0.952 | 0.875
9 | TTGTCG | 0.791 | 0.887 | 0.812 | 0.857 | 0.805 | 0.732 | 0.787
10 | GGGTCT | 0.858 | 0.98 | 0.811 | 0.857 | 0.867 | 0.927 | 0.869
11 | GGGGAT | 0.658 | 0.647 | 0.614 | 0.668 | 0.596 | 0.535 | 0.65
12 | ACCGTG | 0.213 | 0.221 | 0.239 | 0.231 | 0.227 | 0.223 | 0.249
13 | CCTGTC | 0.995 | 0.933 | 0.898 | 0.975 | 0.904 | 0.767 | 0.857
14 | GAGTCA | 0.264 | 0.287 | 0.246 | 0.297 | 0.28 | 0.296 | 0.29
15 | TGAGAT | 0.687 | 0.638 | 0.631 | 0.701 | 0.659 | 0.683 | 0.715
16 | GGAGGT | 0.357 | 0.337 | 0.3 | 0.355 | 0.334 | 0.394 | 0.379
17 | GCATAA | 0.84 | 0.848 | 0.844 | 0.901 | 0.853 | 0.812 | 0.817
18 | CGGGGC | 0.604 | 0.542 | 0.586 | 0.62 | 0.591 | 0.636 | 0.599
19 | CGGCGA | 0.688 | 0.711 | 0.748 | 0.715 | 0.819 | 0.861 | 0.736
20 | CGCATG | 0.653 | 0.677 | 0.631 | 0.62 | 0.677 | 0.677 | 0.656
21 | AGGGAC | 0.757 | 0.708 | 0.751 | 0.703 | 0.781 | 0.749 | 0.683
22 | TCAGTG | 0.757 | 0.799 | 0.78 | 0.744 | 0.753 | 0.757 | 0.83
23 | GCGTGA | 0.286 | 0.279 | 0.273 | 0.294 | 0.271 | 0.308 | 0.291
24 | ACGGGG | 0.686 | 0.715 | 0.693 | 0.666 | 0.629 | 0.741 | 0.604
25 | GTTCGG | 0.568 | 0.65 | 0.63 | 0.681 | 0.628 | 0.554 | 0.62
26 | CTGAGA | 0.79 | 0.77 | 0.702 | 0.773 | 0.783 | 0.843 | 0.816
27 | GAGCCT | 0.889 | 0.822 | 0.765 | 0.818 | 0.841 | 0.842 | 0.775
28 | TGTCGT | 0.842 | 0.859 | 0.812 | 0.824 | 0.768 | 0.926 | 0.808
29 | GGGAGG | 0.323 | 0.312 | 0.298 | 0.306 | 0.314 | 0.303 | 0.332
30 | CGTGAA | 0.436 | 0.489 | 0.474 | 0.461 | 0.44 | 0.454 | 0.454

Single values from above:
Value of AGGGAC under binding signal [2]: 0.708
Value of ACCGTG under binding signal [3]: 0.239
